This note sets out measurements from paper PMC12681703.

No constants are given. Whether binding was seen depends on the method and setting. In cells and extracts the contact can be indirect. Here binding means that the protein was enriched with, or labelled near, the bait; the list need not be complete.

The target in this assay is LAPTM4B-24-3xFlag (Flag-tagged LAPTM4B). Description: affinity purification with mass spectrometry; immunoprecipitation of Flag-tagged LAPTM4B from LAPTM4B-expressing cells against control cells, then mass spectrometry; hit if the peptide count is at least 1.5-fold that of the control and at least two peptides more.

B1: TRIM8 (endogenous) (enzyme, UniProt Q9BZR9 1-551)
chain: MAENWKNCFEEELICPICLHVFVEPVQLPCKHNFCRGCIGEAWAKDSGLVRCPECNQAYNQKPGLEKNLKLTNIVEKFNALHVEKPPAALHCVFCRRGPPLPAQKVCLRCEAPCCQSHVQTHLQQPSTARGHLLVEADDVRAWSCPQHNAYRLYHCEAEQVAVCQYCCYYSGAHQGHSVCDVEIRRNEIRKMLMKQQDRLEEREQDIEDQLYKLESDKRLVEEKVNQLKEEVRLQYEKLHQLLDEDLRQTVEVLDKAQAKFCSENAAQALHLGERMQEAKKLLGSLQLLFDKTEDVSFMKNTKSVKILMDRTQTCTSSSLSPTKIGHLNSKLFLNEVAKKEKQLRKMLEGPFSTPVPFLQSVPLYPCGVSSSGAEKRKHSTAFPEASFLETSSGPVGGQYGAAGTASGEGQSGQPLGPCSSTQHLVALPGGAQPVHSSPVFPPSQYPNGSAAQQPMLPQYGGRKILVCSVDNCYCSSVANHGGHQPYPRSGHFPWTVPSQEYSHPLPPTPSVPQSLPSLAVRDWLDASQQPGHQDFYRVYGQPSTKHYVTS
With B1, the binding result is “binds”.
